Experimental data taken from PMC10794948.
These are yes or no findings as the source states them, for the method shown. Binding calls can cover weak binding; strength is not graded here. For some of these results: Binding seen in cells or lysates may run through a third protein. For some of these results: Where a sequence is shown, tags or fusion partners need not be part of it.

Columns and labels:
[1] = target: T1, SmDDA1b with GFP tag in pEAQ (eggplant (Solanum melongena)); experiment: co-IP; SmDDA1b-GFP and SmNAC-His co-expressed in N. benthamiana leaves; extract in 50 mM HEPES pH 7.5, 150 mM KCl, 1 mM EDTA, 1 mM DTT, 0.5% Triton X-100; precipitated with GFP antibody and Protein A+G agarose overnight at 4 C
T1 sequence: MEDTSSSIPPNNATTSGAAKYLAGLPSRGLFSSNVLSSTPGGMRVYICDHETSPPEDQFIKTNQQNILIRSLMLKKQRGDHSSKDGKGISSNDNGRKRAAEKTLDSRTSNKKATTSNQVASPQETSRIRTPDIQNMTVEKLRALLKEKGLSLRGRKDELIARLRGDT

[2] = target: SmDDB1 in pGBKT7 (eggplant (Solanum melongena)); experiment: two-hybrid; baits in pGBKT7 (SmNAC 1-139, SmDDB1), preys in pGADT7 (SmDDA1b, SmCUL4), Y2H Gold strain, Clontech kit 630489; SmDDA1b first found in a screen of an eggplant leaf cDNA library with SmNAC 1-139 as bait
[3] = target: SmNAC1-139 (N-terminal 139 aa of SmNAC) in pGBKT7 (eggplant (Solanum melongena)); experiment: as above
[4] = target: SmNAC in pSPYCE-35s/pUC-SPYCE (YCE) (eggplant (Solanum melongena)); experiment: split reporter; BiFC with split YFP (YNE/YCE) in agroinfiltrated N. benthamiana leaves, DsRed nuclear marker, with or without 50 uM MG132, dark, 22 C, 3 d, confocal microscopy

SmNAC with His tag in pEAQ (eggplant (Solanum melongena))
binding [1]: binds

B1: SmDDA1b in pGADT7 (protein)
chain: T1 sequence
binding [2]: binds | binding [3]: binds

B2: SmDDA1b in pSPYNE-35s/pUC-SPYNE (YNE) (protein)
chain: T1 sequence
binding [4]: binds
